Reference: article PMC9387936
Results are given in words; binding and its absence hold for the method and conditions named. Binding seen in cells or lysates may run through a third protein. Some results given as binding are weak or reduced against the parent protein; the word gives no strength. Tags and fused reporters may be left off the sequences shown.

The chains behind the UniProt entries cited, without tags or fusion partners.
UniProt P46100: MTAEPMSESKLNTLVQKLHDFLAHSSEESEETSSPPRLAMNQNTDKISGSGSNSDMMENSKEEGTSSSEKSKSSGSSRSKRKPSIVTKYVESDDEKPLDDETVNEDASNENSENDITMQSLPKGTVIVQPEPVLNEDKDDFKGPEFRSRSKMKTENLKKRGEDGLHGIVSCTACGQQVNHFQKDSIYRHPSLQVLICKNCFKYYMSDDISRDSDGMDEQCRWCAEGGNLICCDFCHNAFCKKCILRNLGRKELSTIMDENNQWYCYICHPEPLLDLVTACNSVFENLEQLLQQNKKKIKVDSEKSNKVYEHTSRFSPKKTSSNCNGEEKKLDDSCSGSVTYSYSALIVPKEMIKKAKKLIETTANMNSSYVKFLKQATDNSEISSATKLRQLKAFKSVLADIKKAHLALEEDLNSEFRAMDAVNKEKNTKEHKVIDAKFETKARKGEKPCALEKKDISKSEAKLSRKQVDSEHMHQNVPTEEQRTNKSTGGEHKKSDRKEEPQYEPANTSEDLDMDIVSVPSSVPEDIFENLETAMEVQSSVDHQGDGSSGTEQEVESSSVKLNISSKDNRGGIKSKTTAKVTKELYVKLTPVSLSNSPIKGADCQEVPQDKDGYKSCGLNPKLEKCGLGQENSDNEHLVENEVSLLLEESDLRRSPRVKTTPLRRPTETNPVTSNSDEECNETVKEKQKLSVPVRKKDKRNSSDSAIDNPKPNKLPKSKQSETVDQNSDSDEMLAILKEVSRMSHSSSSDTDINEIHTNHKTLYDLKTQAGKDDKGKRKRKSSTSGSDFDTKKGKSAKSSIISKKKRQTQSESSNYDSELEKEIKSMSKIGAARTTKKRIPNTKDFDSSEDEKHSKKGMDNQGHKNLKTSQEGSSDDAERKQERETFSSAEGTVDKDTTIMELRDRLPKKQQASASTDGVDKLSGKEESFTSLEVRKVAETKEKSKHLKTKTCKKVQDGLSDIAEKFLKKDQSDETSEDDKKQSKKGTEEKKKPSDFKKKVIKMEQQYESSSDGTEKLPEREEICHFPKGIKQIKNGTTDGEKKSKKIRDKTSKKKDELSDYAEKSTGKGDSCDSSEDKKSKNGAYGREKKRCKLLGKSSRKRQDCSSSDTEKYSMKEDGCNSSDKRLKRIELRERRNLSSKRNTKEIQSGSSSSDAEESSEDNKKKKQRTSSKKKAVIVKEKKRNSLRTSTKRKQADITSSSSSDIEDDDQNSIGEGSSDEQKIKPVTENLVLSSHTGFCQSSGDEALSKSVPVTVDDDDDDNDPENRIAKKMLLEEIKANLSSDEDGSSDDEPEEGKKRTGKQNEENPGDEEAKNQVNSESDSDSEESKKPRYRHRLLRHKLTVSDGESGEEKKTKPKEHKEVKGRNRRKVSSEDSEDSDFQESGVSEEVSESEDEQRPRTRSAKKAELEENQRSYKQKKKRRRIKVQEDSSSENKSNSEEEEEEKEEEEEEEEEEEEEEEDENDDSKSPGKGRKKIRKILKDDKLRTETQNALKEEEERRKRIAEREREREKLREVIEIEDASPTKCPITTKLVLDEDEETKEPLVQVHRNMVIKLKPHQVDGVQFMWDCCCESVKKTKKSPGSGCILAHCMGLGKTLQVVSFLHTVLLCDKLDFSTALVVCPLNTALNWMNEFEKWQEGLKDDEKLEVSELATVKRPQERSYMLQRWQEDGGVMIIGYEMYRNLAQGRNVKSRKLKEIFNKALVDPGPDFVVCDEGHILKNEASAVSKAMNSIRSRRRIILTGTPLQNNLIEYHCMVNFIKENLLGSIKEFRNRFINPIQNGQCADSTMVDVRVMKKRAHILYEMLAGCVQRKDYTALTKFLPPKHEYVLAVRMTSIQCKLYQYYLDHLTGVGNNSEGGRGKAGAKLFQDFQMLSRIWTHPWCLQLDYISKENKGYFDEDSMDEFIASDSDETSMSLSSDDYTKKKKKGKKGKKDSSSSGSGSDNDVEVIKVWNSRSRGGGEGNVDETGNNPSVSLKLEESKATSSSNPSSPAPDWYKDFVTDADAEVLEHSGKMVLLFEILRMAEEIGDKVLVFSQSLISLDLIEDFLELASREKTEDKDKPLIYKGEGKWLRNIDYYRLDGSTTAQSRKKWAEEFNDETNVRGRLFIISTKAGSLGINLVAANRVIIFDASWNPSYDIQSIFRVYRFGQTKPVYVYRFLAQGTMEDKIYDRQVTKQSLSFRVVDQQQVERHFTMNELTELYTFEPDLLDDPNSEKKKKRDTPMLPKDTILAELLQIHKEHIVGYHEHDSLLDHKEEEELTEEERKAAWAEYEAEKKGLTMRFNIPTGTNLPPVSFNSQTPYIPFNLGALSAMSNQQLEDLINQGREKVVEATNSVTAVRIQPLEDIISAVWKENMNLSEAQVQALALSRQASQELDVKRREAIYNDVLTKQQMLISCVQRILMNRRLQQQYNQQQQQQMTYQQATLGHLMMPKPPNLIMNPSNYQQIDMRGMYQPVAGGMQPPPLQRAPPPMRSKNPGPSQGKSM

Target: alpha thalassemia/mental retardation syndrome X-linked (ATRX) (human (endogenous in HEK293T)) (UniProt P46100)
Experiment: co-IP; HEK293T cells, stimulated with 0.5 ug/ml poly(I:C) HMW for 24 h, left unstimulated, or transfected with GFP-V5-IRF3; lysed in CoIP buffer (50 mM Tris-HCl pH 8.0, 150 mM NaCl, 5 mM EDTA, 0.5% NP-40); endogenous ATRX precipitated with anti-ATRX (D1N2E) on protein A-Sepharose or protein G-Dynabeads, 1.5 h at 4 C; IgG isotype control as negative control; Western blot

Row | Binder | binding
1 | interferon regulatory factor 3 (IRF3), endogenous (protein, UniProt Q14653 1-427) MGTPKPRILPWLVSQLDLGQLEGVAWVNKSRTRFRIPWKHGLRQDAQQEDFGIFQAWAEATGAYVPGRDKPDLPTWKRNFRSALNRKEGLRLAEDRSKDPHDPHKIYEFVNSGVGDFSQPDTSPDTNGGGSTSDTQEDILDELLGNMVLAPLPDPGPPSLAVAPEPCPQPLRSPSLDNPTPFPNLGPSENPLKRLLVPGEEWEFEVTAFYRGRQVFQQTISCPEGLRLVGSEVGDRTLPGWPVTLPDPGMSLTDRGVMSYVRHVLSCLGGGLALWRAGQWLWAQRLGHCHTYWAVSEELLPNSGHGPDGEVPKDKEGGVFDLGPFIVDLITFTEGSGRSPRYALWFCVGESWPQDQPWTKRLVMVKVVPTCLRALVEMARVGGASSLENTVDLHISNSHPLSLTSDQYKAYLQDLVEGMDFQGPGES | binds
2 | GFP-V5-IRF3 (protein, UniProt Q14653 1-427) MGTPKPRILPWLVSQLDLGQLEGVAWVNKSRTRFRIPWKHGLRQDAQQEDFGIFQAWAEATGAYVPGRDKPDLPTWKRNFRSALNRKEGLRLAEDRSKDPHDPHKIYEFVNSGVGDFSQPDTSPDTNGGGSTSDTQEDILDELLGNMVLAPLPDPGPPSLAVAPEPCPQPLRSPSLDNPTPFPNLGPSENPLKRLLVPGEEWEFEVTAFYRGRQVFQQTISCPEGLRLVGSEVGDRTLPGWPVTLPDPGMSLTDRGVMSYVRHVLSCLGGGLALWRAGQWLWAQRLGHCHTYWAVSEELLPNSGHGPDGEVPKDKEGGVFDLGPFIVDLITFTEGSGRSPRYALWFCVGESWPQDQPWTKRLVMVKVVPTCLRALVEMARVGGASSLENTVDLHISNSHPLSLTSDQYKAYLQDLVEGMDFQGPGES | binds
